For this assay, the target named is T1, mouse Nucleoredoxin Cys208Ser (mouse) (UniProt P97346).
T1 sequence: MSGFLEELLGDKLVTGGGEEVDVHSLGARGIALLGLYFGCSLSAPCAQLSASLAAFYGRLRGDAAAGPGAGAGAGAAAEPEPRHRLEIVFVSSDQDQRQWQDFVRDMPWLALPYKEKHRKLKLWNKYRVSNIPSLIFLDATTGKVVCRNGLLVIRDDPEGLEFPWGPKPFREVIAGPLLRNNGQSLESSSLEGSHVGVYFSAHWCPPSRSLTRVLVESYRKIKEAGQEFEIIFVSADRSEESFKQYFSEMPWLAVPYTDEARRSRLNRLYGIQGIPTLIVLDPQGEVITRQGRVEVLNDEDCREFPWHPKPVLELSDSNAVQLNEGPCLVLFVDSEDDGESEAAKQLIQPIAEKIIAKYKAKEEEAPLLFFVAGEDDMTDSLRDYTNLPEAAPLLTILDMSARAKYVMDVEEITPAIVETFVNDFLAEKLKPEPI
Briefly: affinity purification with mass spectrometry; intermediate trapping: mNrx Cys208Ser coupled to CNBr-activated sepharose and reduced with 10 mM DTT; mouse brain extract (Black 6 C57J mice, NP40 lysis buffer) 2 h at 4°C; washed with 100 mM Tris, 300 mM NaCl, pH 8 and TE buffer; trapped proteins (mixed disulfide) eluted with 10 mM DTT and 10 mM TCEP; only the target purified.

These are yes or no findings as the source states them, for the method shown. Binding seen in cells or lysates may run through a third protein. Here binding means that the protein was enriched with, or labelled near, the bait; the list need not be complete.

B1: Synaptic vesicle membrane protein VAT-1 homolog (mouse) (protein, UniProt Q62465 1-406)
chain: MSAEREAAEAATVAAATEAGAETGTGAGEGAPSQPPTVEVASDPQPPPAPEASASASAPPLRCLVLTGFGGYDKVKLQSRPAVPPAPGPGQLTLRVRACGLNFADLMGRQGLYDRLPPLPVTPGMEGAGVVVAVGEGVGDRKAGDRVMVLNRSGMWQEEVTVPSAQTFLMPEAMTFEEAAALLVNYITAYMVLFDFGNLRPGHSVLVHMAAGGVGMAALQLCRTVENVTVFGTASASKHEVLKENGVTHPIDYHTTDYVDEIKKISPKGVDIVMDPLGGSDTAKGYHLLKPMGKVVTYGMANLLTGPKRNLMAMARTWWNQFSVTALQLLQANRAVCGFHLGYLDGEVELVNSVVTRLVALYNQGHIKPRIDSVWPFEKVADAMKQMQEKKNIGKVLLVPGPEKET
As to B1, the binding result is “binds”.

These data come from publication PMC6280245.
